PubChem BioAssay AID504786, Drosophila RNAi Screening Center – 2011

- Assay: 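Fly genes required for HIF-dependent transcription when hypoxia is mimicked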 (primary screen)
- Cells: Drosophila S2 cells with a stable HIF luciferase reporter
- Reagents: long dsRNA against Drosophila genes, about 0.2 µg dsRNA per well of a 384-well plate
- Time to read-out: three days of knock-down, then 20 h of DFO before reading
- Conditions: desferrioxamine (DFO) at 100 µM, an iron chelator that mimics hypoxia, for 20 h
- Measurement: 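Firefly luciferase driven by the mouse ldh-a hypoxia-response element, measured after 20 h of 100 µM DFO; z-scores per plate, higher means more signal lost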
- Direction: z-score: higher = stronger loss of HIF reporter signal
In all, the deposit lists about 21,000 reagents; below is a random part of those that have a named target and a result. 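Primary screen; positive scores mean lost reporter signal, so the sign may be inverted from the usual convention.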 The numbers tell different reagents against one gene apart. A plus sign joins genes that one reagent is predicted to hit. Further read-outs or replicates are left out here. Reagent sequences are not shown.

Ripalpha: z-score, replicate 1 = -0.4
HHEX: z-score, replicate 1 = 0.5
Nil: z-score, replicate 1 = -0.1
par-6: z-score, replicate 1 = -0.4
BomBc3: z-score, replicate 1 = -0.2
CG12744: z-score, replicate 1 = -0.4
Dscam2 #1: z-score, replicate 1 = -0.4
Dscam2 #2: z-score, replicate 1 = -0.1
Dscam2 #3: z-score, replicate 1 = -0.5
Dscam2 #4: z-score, replicate 1 = -0.1
eIF2Balpha: z-score, replicate 1 = -0.4
Uhg2 + snoRNA:Me18S-G1620 + snoRNA:U14:30Ea: z-score, replicate 1 = -0.1
CG7695: z-score, replicate 1 = -0.8
RhoGAP18B #1: z-score, replicate 1 = -0.6
RhoGAP18B #2: z-score, replicate 1 = -0.6
RhoGAP18B #3: z-score, replicate 1 = -0.7
RhoGAP18B #4: z-score, replicate 1 = 0.1
CG14866: z-score, replicate 1 = -0.3
Obp22a: z-score, replicate 1 = -0.6
CG4393: z-score, replicate 1 = -0.4
side-IV: z-score, replicate 1 = -0.1
PIP4K: z-score, replicate 1 = -0.4
kra: z-score, replicate 1 = -0.2
Drs: z-score, replicate 1 = -0.3
CG8468: z-score, replicate 1 = -0.1
Sytalpha: z-score, replicate 1 = -0.3
NPFR: z-score, replicate 1 = -0.2

Entries above whose target name begins with S or s:
side-IV: z-score, replicate 1 = -0.1
Sytalpha: z-score, replicate 1 = -0.3
